From ChEMBL document CHEMBL3988442, “University of Dundee, Small-Polar-MMV Screening Library” (2021).

The chains behind the UniProt entries cited, without tags or fusion partners.
UniProt E9BF75, entry or part of it: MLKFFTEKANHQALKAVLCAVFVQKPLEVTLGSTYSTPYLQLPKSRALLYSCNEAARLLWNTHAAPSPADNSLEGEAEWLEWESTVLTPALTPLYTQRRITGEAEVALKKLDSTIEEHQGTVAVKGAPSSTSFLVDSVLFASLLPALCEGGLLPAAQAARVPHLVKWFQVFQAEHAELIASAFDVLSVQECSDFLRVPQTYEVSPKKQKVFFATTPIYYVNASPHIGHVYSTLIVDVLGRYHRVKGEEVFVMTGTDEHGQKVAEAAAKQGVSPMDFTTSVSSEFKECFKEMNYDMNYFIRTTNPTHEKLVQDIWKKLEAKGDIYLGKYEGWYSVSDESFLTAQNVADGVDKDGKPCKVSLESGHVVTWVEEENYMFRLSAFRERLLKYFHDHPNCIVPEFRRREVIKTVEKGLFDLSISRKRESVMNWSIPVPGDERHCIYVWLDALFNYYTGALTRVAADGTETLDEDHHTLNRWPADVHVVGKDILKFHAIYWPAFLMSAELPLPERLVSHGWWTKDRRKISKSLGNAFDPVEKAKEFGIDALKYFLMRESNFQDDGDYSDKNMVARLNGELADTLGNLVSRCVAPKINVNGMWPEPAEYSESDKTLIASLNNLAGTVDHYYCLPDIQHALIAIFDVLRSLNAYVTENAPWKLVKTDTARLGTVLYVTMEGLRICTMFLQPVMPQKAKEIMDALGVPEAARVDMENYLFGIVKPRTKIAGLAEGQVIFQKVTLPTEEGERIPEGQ

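Primary screen of methionyl-tRNA synthetase; the read-out is not stated. Target: Methionyl-tRNA synthetase (putative), Leishmania donovani (UniProt E9BF75). The test concentration is not given. The values are filed as inhibition. Size under these conditions: about 68,000 compounds, about 24 of them at 50% or above in at least one test.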

Results are percentages, as filed. The controls that fix the scale are not given in the record; negative values are as filed. Compounds were drawn at random from those tested, without regard to their results.

- O=C(c1ccc(F)cc1)N1CC[C@H]2[C@H]1CCN2CC1CCOCC1 : 17.58%
- CC(Cn1cccn1)NCc1nc(-c2ccco2)no1 (centres undefined) : 13.14%
- O=C(NCCc1cscn1)c1coc(CN2CCOCC2)c1 : 5.861%
- CC(C)c1nc(C2CCCN2Cc2cc(=O)n(C)c(=O)n2C)no1 (centres undefined) : 19.36%
- COCCN1CCO[C@@H]2CN(Cc3ccccn3)C[C@@H]2C1 : 17.75%
- COc1c(C2CC(=O)Nc3[nH]ncc32)cc2c(c1OC)OCO2 (centres undefined) : 6.954%
- Cc1[nH]c2ccc(CNC3CCN(Cc4ccccn4)CC3)cc2c1C : 15.72%
- Cc1cc(NC2CCN(c3ccc(F)cc3)CC2)n2nc(C)cc2n1 : 11.02%
- CS(=O)(=O)c1ccc(-c2cc(C3CC3)c(C#N)c(N)n2)cc1 : 10.92%
- COCCCNC(=O)c1cn(C(C)(C)C)c2ncccc12 : 13.61%
- COCCNC(=O)C1(c2ccc(C)c(OC)c2)CCCC1 : 7.542%
- CCN(CC)C(=O)C1CCC(=O)N(CCc2cccc(F)c2)C1 (centres undefined) : -0.3226%
- NC(=O)N1CCC2(CCN(Cc3ccccn3)C2=O)C1 (centres undefined) : 8.75%
- COCCNCc1cc2c(C)cc(C)cc2n2c(=O)n(C)nc12 : 11.3%
- CC1CCCN(C(=O)Cn2cc(I)cn2)C1 (centres undefined) : 14.23%
- CCC(NC(=O)c1cnc(-c2cccnc2)nc1)c1ccnn1C (centres undefined) : 4.789%
- O=C(Cc1ccc(F)cc1)NCCNCc1cccc(O)c1 : 23.08%
- O=S1(=O)[C@@H](c2ccccc2)[C@H](CO)CN1c1ccccc1 : 5.676%
- COc1cc(CNC2CCN(c3ccccc3)C2)cc(OC)c1OC (centres undefined) : 11.45%
- c1coc(CN2CCC3(CC2)COC(COCC2CCOCC2)C3)c1 (centres undefined) : 13.45%
- CCS(=O)(=O)NCCNC(=O)c1cc(Cl)c2c(c1)OCCCO2 : 13.01%
- O=C(CC[C@@H]1CCCN2CCCC[C@H]12)NCCc1cc(O)ncn1 : 3.2%
- CC(C)(C)C(=O)N1CCCC1c1nc(O)cc(-c2ccccn2)n1 (centres undefined) : 18.84%
- Cc1ncc2c(n1)CCN(CCCc1nc3ccccc3o1)C2 : 13.86%
- CC(=O)N[C@H]1CCN(c2nc(C)nc3c2c(C)nn3C)C1 : 18.79%
- CC(C)=CCN1CCN(C(C)c2cccnc2)CC1 (centres undefined) : 17.36%
- CN(C)C(=O)c1cccc(CCNS(C)(=O)=O)c1 : 10.99%
- CC(C)OCCOCc1cccc(NC(=O)NCCn2ccnc2)c1 : 3.15%
- O=C1NCC2(CCCN(C(=O)Nc3ccc4scnc4c3)CC2)O1 (centres undefined) : 18.12%
- O=C(NC1CCN(CC2CC2)C1)c1ccc(C(=O)c2cc[nH]c2)cc1 (centres undefined) : -5.08%
- CN(C(=O)c1cccc(NCc2cccs2)c1)C(C1CC1)C1CC1 : 19.58%
- CCn1nc(C)c2nn(CC(=O)NC3CCSCC3)cc21 : 22.08%
- O=S(=O)(N1CCCCC1)N1CCc2nc(C3CCNCC3)ncc2C1 : 18.15%
- CC(C)NC(=O)C1CN(C(=O)COc2ccccc2)CC12CCOCC2 (centres undefined) : 8.667%
- CCN1CCN(CCNC(=O)c2sc(C)nc2C)CC1 : 15.3%
- Cc1nc(CN2CCC(NS(C)(=O)=O)CC2)co1 : 18.56%
- CCCC1COCCN1Cc1ccc(NC(C)=O)cc1 (centres undefined) : 13.28%
- Cn1cc(C2COC3(CCN(C(=O)c4ccsc4)CC3)C2)cn1 (centres undefined) : 11.44%
- CNC(=O)CCc1cc(C2CCN(c3cnccn3)CC2)nc(C)n1 : 13.71%
- O=C(CO)N1C[C@H]2CN(Cc3cccc(F)c3)C(=O)[C@H]2C1 : 7.333%
- CCCN(C(=O)c1csnn1)C1CCCN(Cc2ccccc2)C1 (centres undefined) : 9.409%
- COc1ccc(OC)c(CN2CCC(c3cc(O)nc(C)n3)C2)c1 (centres undefined) : 9.647%
- COCc1noc(-c2cc(Cl)c3c(c2)OCCCO3)n1 : 9.763%
- CN(Cc1cccs1)C(=O)CN1CCCC(Cn2cncn2)C1 (centres undefined) : 26.14%
- O=C(CCN1CCOC(C(F)(F)F)C1)NCc1ccccc1Cl (centres undefined) : 6.62%
- Fc1ccc(CNCC2Cn3nncc3CO2)cc1 (centres undefined) : -4.261%
- c1cnc(N2CCO[C@H]3CN(CC4CCC4)C[C@H]32)cn1 : 21.3%
- Cc1noc(C)c1C(=O)N(C)C(C)c1ccc(S(C)(=O)=O)cc1 (centres undefined) : 10.03%
- CC1CN(CC(=O)NCc2ccc(F)cc2)CCN1c1nccs1 (centres undefined) : 8.672%
- NC(=O)C1CCCN1Cc1cccc(NC(=O)c2ccc(Cl)cc2F)c1 (centres undefined) : 7.427%
- O=C(c1ccc(F)cc1)N(CCCO)S(=O)(=O)c1cccs1 : 3.351%
- COc1cccc(CN(C)Cc2nc3cc(C)ccc3[nH]2)c1O : 15.33%
- CC(C)CC(=O)N1CCN(Cc2cc(-c3ccncc3)nn2C)CC1 : 15.62%
- O=S1(=O)NC2(CCCN(Cc3ccc(Cl)cc3)C2)COc2ccccc21 (centres undefined) : 10.86%
- COc1ccc(CN2CCc3c(nc(-c4ccccn4)[nH]c3=O)C2)cc1 : 16.67%

For reference, 5 entries once more:

structure	inhibition
CC1CCCN(C(=O)Cn2cc(I)cn2)C1 (centres undefined)	14.23%
c1cnc(N2CCO[C@H]3CN(CC4CCC4)C[C@H]32)cn1	21.3%
CCS(=O)(=O)NCCNC(=O)c1cc(Cl)c2c(c1)OCCCO2	13.01%
O=C(CO)N1C[C@H]2CN(Cc3cccc(F)c3)C(=O)[C@H]2C1	7.333%
CCn1nc(C)c2nn(CC(=O)NC3CCSCC3)cc21	22.08%